Test results reported in the supplement of paper PMC6411743.
± gives the standard deviation of the averaged measurements. The list shows a part of the results, in another mix than the full data.

Columns and labels:
Assay in all cases: NP40-soluble protein abundance relative to vehicle (solubility fold change) (ratio); higher = more soluble protein in presence of ATP
[1] = target: T1, UniProt Q5T0F9 and related entries
T1 sequence (whole entry): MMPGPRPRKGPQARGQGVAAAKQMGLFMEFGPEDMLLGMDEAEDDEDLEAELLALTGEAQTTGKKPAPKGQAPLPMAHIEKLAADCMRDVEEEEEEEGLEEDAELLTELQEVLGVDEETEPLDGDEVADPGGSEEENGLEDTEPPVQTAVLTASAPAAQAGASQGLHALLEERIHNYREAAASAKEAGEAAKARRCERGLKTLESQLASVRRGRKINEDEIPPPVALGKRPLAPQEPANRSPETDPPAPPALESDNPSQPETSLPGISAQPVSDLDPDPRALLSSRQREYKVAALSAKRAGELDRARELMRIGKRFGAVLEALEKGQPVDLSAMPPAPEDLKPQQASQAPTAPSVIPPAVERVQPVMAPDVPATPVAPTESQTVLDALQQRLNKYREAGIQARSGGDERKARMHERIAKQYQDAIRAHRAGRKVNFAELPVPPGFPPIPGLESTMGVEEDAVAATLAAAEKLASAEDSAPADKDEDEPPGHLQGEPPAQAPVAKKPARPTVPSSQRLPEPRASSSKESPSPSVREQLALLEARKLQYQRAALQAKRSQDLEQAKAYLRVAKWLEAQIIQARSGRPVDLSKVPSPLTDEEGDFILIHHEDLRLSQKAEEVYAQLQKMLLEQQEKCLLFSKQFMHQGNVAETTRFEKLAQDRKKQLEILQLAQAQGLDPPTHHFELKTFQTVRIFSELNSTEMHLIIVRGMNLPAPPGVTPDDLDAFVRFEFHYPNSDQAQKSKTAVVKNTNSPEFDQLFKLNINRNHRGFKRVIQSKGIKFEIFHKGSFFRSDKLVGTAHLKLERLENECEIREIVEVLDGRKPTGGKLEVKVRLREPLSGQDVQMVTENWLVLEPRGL
In short: (§1)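 In three independent experiments, Jurkat crude lysate made by Dounce homogenisation was treated for 10 min at room temperature and then 3 min at 37 °C with eight concentrations ranging from 0.1 to 10 mM. It was then solubilised with 0.8% NP40 plus benzonase for 60 min at 4 °C and ultracentrifuged. The supernatant was TMT-labelled for LC-MS/MS, and each value is the fold change against the detergent-processed vehicle for the same replicate, using vsn-normalised intensities.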

UniProt Q5VST6 = target: T2, UniProt Q5VST6
T2 sequence (whole entry): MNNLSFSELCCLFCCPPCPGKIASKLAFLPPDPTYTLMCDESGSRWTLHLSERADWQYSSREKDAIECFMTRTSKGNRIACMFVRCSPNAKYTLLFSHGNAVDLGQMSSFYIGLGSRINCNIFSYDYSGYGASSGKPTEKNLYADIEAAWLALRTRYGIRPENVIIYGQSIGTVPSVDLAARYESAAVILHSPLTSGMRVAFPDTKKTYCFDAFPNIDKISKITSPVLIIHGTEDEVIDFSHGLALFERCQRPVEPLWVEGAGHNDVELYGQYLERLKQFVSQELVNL
In short: as §1

UniProt Q5W0B1 = target: T3, UniProt Q5W0B1
T3 sequence (whole entry): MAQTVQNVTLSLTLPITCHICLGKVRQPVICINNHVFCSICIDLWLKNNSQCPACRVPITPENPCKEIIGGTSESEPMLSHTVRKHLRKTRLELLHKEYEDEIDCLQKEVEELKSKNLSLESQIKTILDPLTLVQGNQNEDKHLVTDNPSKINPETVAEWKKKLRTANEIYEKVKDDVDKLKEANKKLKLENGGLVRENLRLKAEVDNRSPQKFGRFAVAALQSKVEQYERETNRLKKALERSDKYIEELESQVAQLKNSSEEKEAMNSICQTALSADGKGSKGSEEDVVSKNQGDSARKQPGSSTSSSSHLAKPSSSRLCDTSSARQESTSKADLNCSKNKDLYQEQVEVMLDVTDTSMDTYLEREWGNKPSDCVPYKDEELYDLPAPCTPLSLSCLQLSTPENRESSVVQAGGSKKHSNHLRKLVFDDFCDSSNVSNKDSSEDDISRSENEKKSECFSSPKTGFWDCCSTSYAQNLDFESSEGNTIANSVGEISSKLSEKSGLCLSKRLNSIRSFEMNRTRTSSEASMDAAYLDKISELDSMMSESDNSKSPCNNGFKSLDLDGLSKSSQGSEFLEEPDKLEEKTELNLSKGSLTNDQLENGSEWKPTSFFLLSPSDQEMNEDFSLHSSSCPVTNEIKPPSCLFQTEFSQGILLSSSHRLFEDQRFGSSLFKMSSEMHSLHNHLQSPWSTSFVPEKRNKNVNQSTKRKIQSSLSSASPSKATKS
In short: as §1

UniProt Q68CQ4 = target: T4, UniProt Q68CQ4
T4 sequence (whole entry): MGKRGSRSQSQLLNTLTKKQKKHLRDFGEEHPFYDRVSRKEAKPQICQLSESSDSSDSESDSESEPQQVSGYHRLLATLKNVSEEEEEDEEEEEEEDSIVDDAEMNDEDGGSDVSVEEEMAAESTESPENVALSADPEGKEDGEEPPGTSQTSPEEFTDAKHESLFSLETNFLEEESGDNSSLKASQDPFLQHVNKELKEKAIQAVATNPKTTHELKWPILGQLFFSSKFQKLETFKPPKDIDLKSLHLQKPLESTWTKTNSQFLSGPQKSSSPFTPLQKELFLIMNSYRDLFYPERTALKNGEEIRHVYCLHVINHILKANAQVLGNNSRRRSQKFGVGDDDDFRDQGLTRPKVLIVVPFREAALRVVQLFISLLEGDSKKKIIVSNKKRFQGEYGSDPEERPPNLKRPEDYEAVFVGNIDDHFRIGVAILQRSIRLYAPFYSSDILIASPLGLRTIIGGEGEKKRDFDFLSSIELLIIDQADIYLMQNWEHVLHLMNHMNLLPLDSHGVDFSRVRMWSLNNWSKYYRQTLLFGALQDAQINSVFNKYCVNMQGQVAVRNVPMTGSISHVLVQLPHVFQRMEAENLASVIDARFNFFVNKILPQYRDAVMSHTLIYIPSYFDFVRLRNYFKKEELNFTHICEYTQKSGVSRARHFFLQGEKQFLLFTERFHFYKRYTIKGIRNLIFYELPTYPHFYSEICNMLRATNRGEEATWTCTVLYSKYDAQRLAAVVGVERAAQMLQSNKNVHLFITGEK
In short: as §1

Compound `Nc1ncnc2c1ncn2[C@@H]1O[C@H](COP(=O)(O)OP(=O)(O)OP(=O)(O)O)[C@@H](O)[C@H]1O` [adenosine triphosphate] has an NP40-soluble protein abundance ([1]; concentration: 1mM) of 0.98 ± 0.025, an NP40-soluble protein abundance ([1]; concentration: 2mM) of 0.994 ± 0.033 and an NP40-soluble protein abundance ([1]; concentration: 4mM) of 0.975 ± 0.055. The NP40-soluble protein abundance ([1]; concentration: 6mM) was 0.984 ± 0.038, the NP40-soluble protein abundance ([1]; concentration: 8mM) was 0.955 ± 0.042 and the NP40-soluble protein abundance ([1]; concentration: 10mM) was 0.956 ± 0.043. For the same compound, the NP40-soluble protein abundance (UniProt Q5VST6; concentration: 1mM) was 0.92 ± 0.059, the NP40-soluble protein abundance (UniProt Q5VST6; concentration: 2mM) was 0.969 ± 0.083 and the NP40-soluble protein abundance (UniProt Q5VST6; concentration: 4mM) was 0.915 ± 0.022. The NP40-soluble protein abundance (UniProt Q5VST6; concentration: 6mM) was 0.831 ± 0.13, the NP40-soluble protein abundance (UniProt Q5VST6; concentration: 8mM) was 0.908 ± 0.021 and the NP40-soluble protein abundance (UniProt Q5VST6; concentration: 10mM) was 0.963 ± 0.024. The NP40-soluble protein abundance (UniProt Q5W0B1; concentration: 1mM) was 0.866 ± 0.036, the NP40-soluble protein abundance (UniProt Q5W0B1; concentration: 2mM) was 0.866 ± 0.04 and the NP40-soluble protein abundance (UniProt Q5W0B1; concentration: 4mM) was 0.922 ± 0.046. It also gave an NP40-soluble protein abundance (UniProt Q5W0B1; concentration: 6mM) of 0.998 ± 0.11, an NP40-soluble protein abundance (UniProt Q5W0B1; concentration: 8mM) of 0.976 ± 0.057 and an NP40-soluble protein abundance (UniProt Q5W0B1; concentration: 10mM) of 0.993 ± 0.034. It also gave an NP40-soluble protein abundance (UniProt Q68CQ4; concentration: 1mM) of 1.05 ± 0.086, an NP40-soluble protein abundance (UniProt Q68CQ4; concentration: 2mM) of 1.05 ± 0.064 and an NP40-soluble protein abundance (UniProt Q68CQ4; concentration: 4mM) of 1.08 ± 0.045. It also gave an NP40-soluble protein abundance (UniProt Q68CQ4; concentration: 6mM) of 1.05 ± 0.086, an NP40-soluble protein abundance (UniProt Q68CQ4; concentration: 8mM) of 1.08 ± 0.063 and an NP40-soluble protein abundance (UniProt Q68CQ4; concentration: 10mM) of 1.08 ± 0.06.
